According to the supplement of paper PMC12823440, “Inhibitors supercharge kinase turnover through native proteolytic circuits” (Nature, 2025):
Structures can show the parent of a compound that is named as a salt. The list shows a part of the results. Hit calls seldom repeat between salt and free forms of one compound.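 In K562 cells expressing nanoluciferase-fused kinases, luminescence was recorded at 4 h intervals between 2 and 18 h, normalized as percent of control with DMSO at 100% and a positive control at 0%. A significant (2 sigma) signal drop marks a time point as decreased. The authors' rule for a hit is not shown and takes in more than the number of time points.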

Amino acid sequences for entries named in this document (tags omitted). A change or cut given only in a name is not applied to a line headed by its entry.
UniProt P23458: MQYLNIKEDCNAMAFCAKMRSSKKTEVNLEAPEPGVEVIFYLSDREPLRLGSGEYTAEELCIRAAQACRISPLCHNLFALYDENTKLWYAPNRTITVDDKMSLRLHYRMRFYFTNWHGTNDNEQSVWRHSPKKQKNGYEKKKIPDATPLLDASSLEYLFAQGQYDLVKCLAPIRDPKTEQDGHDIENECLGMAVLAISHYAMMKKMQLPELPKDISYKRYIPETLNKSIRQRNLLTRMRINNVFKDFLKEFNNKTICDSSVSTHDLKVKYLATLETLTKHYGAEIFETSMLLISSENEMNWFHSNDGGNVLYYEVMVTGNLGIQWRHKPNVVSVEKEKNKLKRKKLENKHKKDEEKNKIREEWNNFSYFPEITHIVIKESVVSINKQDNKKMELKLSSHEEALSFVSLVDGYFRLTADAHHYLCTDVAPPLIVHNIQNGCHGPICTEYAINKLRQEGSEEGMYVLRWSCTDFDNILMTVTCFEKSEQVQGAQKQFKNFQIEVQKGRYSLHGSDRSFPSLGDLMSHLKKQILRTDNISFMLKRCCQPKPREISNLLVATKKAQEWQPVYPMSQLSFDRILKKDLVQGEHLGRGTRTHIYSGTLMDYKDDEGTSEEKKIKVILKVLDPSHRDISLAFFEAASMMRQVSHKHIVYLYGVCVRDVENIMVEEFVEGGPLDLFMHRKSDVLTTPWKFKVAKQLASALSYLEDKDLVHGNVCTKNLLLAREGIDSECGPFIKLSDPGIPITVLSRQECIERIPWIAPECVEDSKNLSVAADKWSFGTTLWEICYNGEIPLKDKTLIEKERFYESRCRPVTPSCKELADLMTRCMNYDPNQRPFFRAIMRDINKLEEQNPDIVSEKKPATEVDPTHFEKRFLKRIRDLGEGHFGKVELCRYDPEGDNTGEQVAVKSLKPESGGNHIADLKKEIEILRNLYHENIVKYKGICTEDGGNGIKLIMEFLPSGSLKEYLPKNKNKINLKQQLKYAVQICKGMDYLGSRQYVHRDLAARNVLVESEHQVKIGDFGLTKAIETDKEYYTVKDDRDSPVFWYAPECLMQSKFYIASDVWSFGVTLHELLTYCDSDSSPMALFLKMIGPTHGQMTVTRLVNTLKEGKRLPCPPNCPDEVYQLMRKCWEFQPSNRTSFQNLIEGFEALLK

target: JAK1 (UniProt P23458); assay: number of time points (of 5) at which kinase-Nluc abundance scored as decreased, DMSO-normalised (count); higher = more persistent destabilization; details: K562; 2-18 h

SMILES | number of time points
Cc1cnc(Cl)nc1-c1ccc(N(Cc2ccc(CNC(=O)C(F)F)cc2)C(=O)c2ccc(O)cc2O)cc1 (10 µM) | 0
COc1cc2c(cc1OC)[C@@H]1C(=O)c3ccc4c(c3O[C@@H]1CO2)C=CC(C)(C)O4 [Deguelin] (10 µM) | 0
CC(C)(CCCCCC(O)CCCCCC(C)(C)C(=O)O)C(=O)O [Bempedoic acid] (10 µM) | 0
COc1cc2nnc(C(N)=O)c(Nc3ccc(C)cc3F)c2cc1N1CCN(CCO)CC1 (2.5 µM) | 0
O=C(Nc1ccc(Cl)cc1)C1CN(C(=O)c2cccc(-c3ccco3)c2)CC(F)(F)C1 (stereo not drawn) (2.5 µM) | 0
CC(=O)O[C@@H]1[C@@H](OC(C)=O)[C@@H](O)[C@H](Oc2c(-c3ccc(O)cc3)oc3cc(O)cc(O)c3c2=O)O[C@H]1C (10 µM) | 0
COc1cc2nc(-c3cc(F)ccc3O)nc(N[C@@H]3CNC[C@H]3C(C)(C)O)c2cc1OC (2.5 µM) | 0
C=CC(=O)Nc1cccc(Oc2nc(Nc3ccc(N4CCN(C)CC4)cc3OC)ncc2Cl)c1 (10 µM) | 0
C=CC(=O)Nc1cc(Nc2nccc(-c3cn(C)c4ccccc34)n2)c(OCC(F)(F)F)nc1N(C)CCNC [AST5902  (trimesylate)] (2.5 µM) | 0
O=C1C=CC2=C3c4cc(O)c(O)cc4CC3(O)COC2=C1O (stereo not drawn) [Hematein] (10 µM) | 0
CCC(F)(F)c1cc(N2CCC(S(C)(=O)=O)CC2)nc2sc(C(N)=O)c(N)c12 (10 µM) | 0
Cn1cc(C2=C(c3ccc(Cl)cc3Cl)C(=O)NC2=O)c2ccccc21 (10 µM) | 0
CCOC(=O)c1c(N2CCc3ccc(OC)cc3C2)oc(C=C2C=Nc3ncccc32)c1O (10 µM) | 0
O=C(COc1ccc(Cl)cc1)NC1CCC(NC(=O)COc2ccc(Cl)cc2)CC1 (stereo not drawn) [ISRIB (trans-isomer)] (10 µM) | 0
COc1ccc(CCNCc2ccc(OCc3ccc(Cl)nc3)c(OC)c2)cc1OC [SBE13 (Hydrochloride)] (10 µM) | 0
Cc1cccc(CC(=O)N2CCc3c2ccc(-c2cn(C)c4ncnc(N)c24)c3F)n1 (10 µM) | 0
COc1cc(N2CCC(N3CCN(C)CC3)CC2)ccc1Nc1ncnc(Nc2ccccc2S(=O)(=O)C(C)C)n1 (10 µM) | 0
CC(C)(Oc1ccc(Cl)cc1)C(=O)Nc1ccc(OCc2ccc(C#N)cc2)cc1 [AMPK activator 4] (10 µM) | 0
Cc1cc(N2CCOCC2)ccc1Nc1nc(NC2CCCCC2)c2[nH]cnc2n1 (10 µM) | 0

SMILES | number of time points
COC(=O)N1CCN(C2CCC(Nc3nc(Nc4cnn(C)c4)nc4ccc(CC#N)nc34)CC2)CC1 (stereo not drawn) (10 µM) | 0
CN(C)CCn1cc2cc(NC(=O)c3cccc(C(F)(F)F)n3)c(C(C)(C)O)cc2n1 (10 µM) | 0
CCOc1cc(N2CCC(O)CC2)ccc1Nc1ncc2c(n1)N(C1CCCC1)CCC(=O)N2C (2.5 µM) | 0
CCC[C@H](C)Oc1nc(N)c2[nH]c(=O)n(CCCCCN3CCCCC3)c2n1 (10 µM) | 0
Fc1ccc(-c2nc3n(c2-c2ccncc2)CCS3)cc1 (10 µM) | 0
CC(ONC(=O)c1cc(C(F)(F)F)cc(C(F)(F)F)c1)C(=O)Nc1ccc(Cl)cc1 (stereo not drawn) (2.5 µM) | 0
O=C(Nc1ccccc1C(=O)NC1CCCCNC1=O)c1cc2ccccc2s1 (stereo not drawn) (10 µM) | 0
N#CC(=C(/N)Sc1ccccc1N)/C(C#N)=C(\N)Sc1ccccc1N (10 µM) | 0
Nc1ccc(O)c(C(=O)O)c1 [5-Aminosalicylic Acid] (10 µM) | 0
CNCc1ccccc1Sc1cccc2ccccc12 [IFN alpha-IFNAR-IN-1 (hydrochloride)] (10 µM) | 0
CCCCNc1ncc2c(-c3ccc(F)cc3)nn(CC3CCC(N)CC3)c2n1 (stereo not drawn) (2.5 µM) | 0
Cc1ncsc1-c1ccc(CNC(=O)[C@@H]2C[C@@H](O)CN2C(=O)[C@@H](NC(=O)COCCOc2ccc(-c3cc(Nc4ccc(OC(F)(F)F)cc4)ncn3)cc2)C(C)(C)C)cc1 (2.5 µM) | 1
Cn1cnc2c(F)c(Nc3ccc(Br)cc3F)c(C(=O)NOCCO)cc21 [Binimetinib] (10 µM) | 0
O=C1NC(=O)C(Cc2c[nH]c3c(Cl)cccc23)N1 (stereo not drawn) [Necroptosis-IN-1] (10 µM) | 0
C=CC(=O)N1CCC(c2ccc(C(N)=O)c(-c3ccc(Oc4ccccc4)cc3)n2)CC1 [Orelabrutinib] (2.5 µM) | 0
CN1C(=O)N[C@@H](Cc2c[nH]c3c(Cl)cccc23)C1=O [Necrostatin 2 (S enantiomer)] (10 µM) | 0
N#Cc1cc(-c2ccnc(Nc3ccc(N4CCOCC4)cc3)n2)ccc1OC1CCOCC1 (10 µM) | 0
COc1cccc(-c2cc(=O)c3ccccc3o2)c1N (10 µM) | 0
Nc1ccc(Sc2nc3ccccc3s2)c(Cl)c1 [KRAS inhibitor-9] (10 µM) | 0

Reprinted from the listing, two compounds:
SMILES | number of time points
CN1C(=O)N[C@@H](Cc2c[nH]c3c(Cl)cccc23)C1=O [Necrostatin 2 (S enantiomer)] (10 µM) | 0
N#Cc1cc(-c2ccnc(Nc3ccc(N4CCOCC4)cc3)n2)ccc1OC1CCOCC1 (10 µM) | 0
